Results deposited as PubChem BioAssay AID1259425 (University of Nebraska Medical Center, 2018)

Assay: 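Seek colon cancer weak points whose silencing resembles KSR1 loss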 (primary screen)
System: HCT116 human colon cancer cells
Knock-down reagent: siRNA pool against human genes, 50 nM siRNA
Read-out: 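mRNA of six signature genes measured together by branched-DNA assay after 50 nM siRNA pool, blank removed, divided by geometric mean of two housekeeping genes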
Direction: BNIP3L mRNA: higher = more BNIP3L transcript after knockdown; NDRG1 mRNA: higher = more NDRG1 transcript after knockdown
The deposit covers about 14,000 reagents; shown is an unselected part. Further read-outs or replicates are left out here. Not given: the time to read-out.

REG1CP — BNIP3L mRNA, set 1 = 0.135; NDRG1 mRNA, set 1 = 0.179
DMGDH — BNIP3L mRNA, set 1 = 0.196; NDRG1 mRNA, set 1 = 0.203
SMAD5 — BNIP3L mRNA, set 1 = 0.0513; NDRG1 mRNA, set 1 = 0.099
PLA2G5 — BNIP3L mRNA, set 1 = 0.0726; NDRG1 mRNA, set 1 = 0.0355
NGFR — BNIP3L mRNA, set 1 = 0.107; NDRG1 mRNA, set 1 = 0.239
FAT1 — BNIP3L mRNA, set 1 = 0.0731; NDRG1 mRNA, set 1 = 0.366
IGFBP1 — BNIP3L mRNA, set 1 = 0.108; NDRG1 mRNA, set 1 = 0.0595
TARS1 — BNIP3L mRNA, set 1 = 0.114; NDRG1 mRNA, set 1 = 0.126
PLA1A — BNIP3L mRNA, set 1 = 0.115; NDRG1 mRNA, set 1 = 0.206
SLC30A6 — BNIP3L mRNA, set 1 = 0.1; NDRG1 mRNA, set 1 = 0.103
RIPOR2 — BNIP3L mRNA, set 1 = 0.0988; NDRG1 mRNA, set 1 = 0.231
JPH2 — BNIP3L mRNA, set 1 = 0.156; NDRG1 mRNA, set 1 = 0.189
SOX14 — BNIP3L mRNA, set 1 = 0.697; NDRG1 mRNA, set 1 = 0.711
HTN3 — BNIP3L mRNA, set 1 = 0.0989; NDRG1 mRNA, set 1 = 0.109
PTDSS2 — BNIP3L mRNA, set 1 = 0.145; NDRG1 mRNA, set 1 = 0.144
KLHL24 — BNIP3L mRNA, set 1 = 0.11; NDRG1 mRNA, set 1 = 0.129
MAPK10 — BNIP3L mRNA, set 1 = 0.105; NDRG1 mRNA, set 1 = 0.0921
FLCN — BNIP3L mRNA, set 1 = 0.141; NDRG1 mRNA, set 1 = 0.157
NFX1 — BNIP3L mRNA, set 1 = 0.0503; NDRG1 mRNA, set 1 = 0.11
OSCAR — BNIP3L mRNA, set 1 = 0.054; NDRG1 mRNA, set 1 = 0.431
TLX1 — BNIP3L mRNA, set 1 = 0.13; NDRG1 mRNA, set 1 = 0.0946
TMEM216 — BNIP3L mRNA, set 1 = 0.0842; NDRG1 mRNA, set 1 = 0.128
CTRC — BNIP3L mRNA, set 1 = 0.0771; NDRG1 mRNA, set 1 = 0.247
GTF2F1 — BNIP3L mRNA, set 1 = 0.07; NDRG1 mRNA, set 1 = 0.209
MBTD1 — BNIP3L mRNA, set 1 = 0.101; NDRG1 mRNA, set 1 = 0.116
TSGA10 — BNIP3L mRNA, set 1 = 0.0954; NDRG1 mRNA, set 1 = 0.124
TLE2 — BNIP3L mRNA, set 1 = 0.112; NDRG1 mRNA, set 1 = 0.152
RGS4 — BNIP3L mRNA, set 1 = 0.136; NDRG1 mRNA, set 1 = 0.241

Laid out differently: results already given.
{"gene":"CTRC","BNIP3L mRNA, set 1":0.0771,"NDRG1 mRNA, set 1":0.247}
{"gene":"GTF2F1","BNIP3L mRNA, set 1":0.07,"NDRG1 mRNA, set 1":0.209}
{"gene":"MBTD1","BNIP3L mRNA, set 1":0.101,"NDRG1 mRNA, set 1":0.116}
